The supplement of paper PMC10689618
The other results are listed elsewhere or left out. Many values rest on one well or one pass, so single values are uncertain.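 Primary human fetal astrocytes engulfed labelled rat cortical synaptosomes, measured as a red/green ratio corrected for calcein live-cell signal and scaled to the plate median. Toxicity meant calcein falling over 30%; decreased phagocytosis meant below 70% of median above 5 µM.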

What was measured:
Human fetal astrocytes [1] = experiment: loss of total cells relative to no-compound high-control median (toxicity); higher = more toxic (fewer cells); conditions: 24 h
Human fetal astrocytes [2] = experiment: synaptosome phagocytosis (pHrodo/calcein intensity ratio) relative to plate median of data wells; higher = more phagocytosis; conditions: 24 h

| SMILES | loss of total cells (Human fetal astrocytes [1]; 1.39 µM) | loss of total cells (Human fetal astrocytes [1]; 2.78 µM) | loss of total cells (Human fetal astrocytes [1]; 5.56 µM) | loss of total cells (Human fetal astrocytes [1]; 11.11 µM) | loss of total cells (Human fetal astrocytes [1]; 22.22 µM) | synaptosome phagocytosis (Human fetal astrocytes [2]; 1.39 µM) | synaptosome phagocytosis (Human fetal astrocytes [2]; 2.78 µM) | synaptosome phagocytosis (Human fetal astrocytes [2]; 5.56 µM) | synaptosome phagocytosis (Human fetal astrocytes [2]; 11.11 µM) | synaptosome phagocytosis (Human fetal astrocytes [2]; 22.22 µM) |
| --- | --- | --- | --- | --- | --- | --- | --- | --- | --- | --- |
| CC1(O)CCOC(=O)C1 (stereo not given) | 1.1% | 6.9% | 2.2% | 13% | 7.6% | 127% | 90.1% | 113% | 67.7% | 98.3% |
| CC(=O)[C@H]1CC[C@H]2[C@@H]3CC=C4C[C@@H](O)CC[C@]4(C)[C@H]3CC[C@]12C | 15.5% | 6.9% | 8% | 5.4% | 21.2% | 136% | 111% | 106% | 118% | 79.2% |
| CCc1cn([C@H]2C[C@H](O)[C@@H](CO)O2)c(=O)[nH]c1=O | -29.8% | 14.3% | -4.3% | 35.7% | 17.1% | 81.7% | 104% | 87.3% | 108% | 104% |
| CC(=O)OC/C=C(C)/C=C/C=C(C)/C=C/C1=C(C)CCCC1(C)C | 4.7% | 24.9% | 1.4% | 0.4% | 3% | 102% | 125% | 70.4% | 126% | 95% |
| CCCCN(CCCC)CCCOC(=O)c1ccc(N)cc1 | -23.4% | -7.1% | -8.1% | 39% | 4% | 100% | 132% | 84.3% | 138% | 79% |
| c1ccc2c(c1)CN1CCCC1=N2 | -4.9% | -9% | -3.7% | 18.9% | 34.1% | 129% | 110% | 121% | 104% | 150% |
| O=c1cc(-c2ccc(O)cc2)oc2cc(O[C@@H]3O[C@H](CO)[C@@H](O)[C@H](O)[C@H]3O[C@@H]3OC[C@](O)(CO)[C@H]3O)cc(O)c12 | -9.1% | 4% | 29.8% | 9% | -11.5% | 129% | 116% | 154% | 104% | 128% |
| COc1cc2ccc(=O)oc2c(OC)c1OC | -6.2% | 17.9% | -24.4% | 24.5% | -2.6% | 102% | 92.6% | 75.8% | 129% | 95.7% |
| COc1c2ccoc2cc2oc(C)cc(=O)c12 | 15.6% | 8.3% | 7.3% | 8.1% | 12.6% | 131% | 133% | 127% | 134% | 67.1% |
| COc1ccc(-c2oc3cc(OC)c(OC)c(OC)c3c(=O)c2OC)cc1 | -15.6% | 2.5% | -5.9% | 18.2% | 11.1% | 102% | 136% | 145% | 90.7% | 101% |
| C[C@]12CCC(=O)C=C1CC[C@@H]1[C@@H]2[C@@H](O)C[C@@]2(C)[C@H]1CC[C@]2(O)C(=O)COC(=O)CCC(=O)O | 0.9% | -29.5% | -6.3% | -7.8% | 5.8% | 131% | 122% | 128% | 101% | 118% |
| C=C1CC[C@H](O)C/C1=C/C=C1\CCC[C@]2(C)[C@@H]([C@H](C)CCCC(C)C)CC[C@@H]12 | 12.2% | -11.2% | -9.8% | 10.1% | 51.4% | 113% | 75.2% | 61.5% | 93.5% | 52.6% |
| Cc1ncc([N+](=O)[O-])n1CC(O)CCl (stereo not given) | -11.2% | 8.6% | 6.9% | -9% | -5.6% | 98.8% | 90.5% | 95.5% | 75.3% | 118% |
| CCC[C@H](N[C@@H](C)C(=O)N1[C@H](C(=O)O)C[C@@H]2CCCC[C@@H]21)C(=O)OCC | -12.9% | -13.5% | 13% | 18.7% | 7.8% | 111% | 108% | 124% | 101% | 95.7% |
| N[C@@H](COCc1ccccc1)C(=O)O | -8.2% | 6.1% | -1.5% | 2% | -3.7% | 113% | 101% | 92.8% | 111% | 105% |
| O=C(/C=C/C(=O)Oc1ccccc1C(=O)O)Oc1ccccc1C(=O)O | -22.1% | 0.4% | -23.4% | 2% | 17% | 104% | 94.1% | 146% | 120% | 136% |
| COc1cc([C@@H]2c3cc4c(cc3[C@@H](O[C@@H]3O[C@@H]5CO[C@@H](C)O[C@H]5[C@H](O)[C@H]3O)[C@H]3COC(=O)[C@H]23)OCO4)cc(OC)c1O | 3.3% | -1% | 6.3% | 10.7% | 1.5% | 95.2% | 99.1% | 108% | 81.2% | 94.3% |
| COc1ccc([C@@H](C)C(=O)c2ccc(O)cc2O)cc1 | 12.7% | 10.6% | -24.4% | 45.2% | -18.1% | 109% | 98.9% | 76.3% | 114% | 71.4% |
| COc1cc2c(cc1OC)C(=O)C(CC1CCN(Cc3ccccc3)CC1)C2 (stereo not given) [Donepezil] | -29.8% | -28.6% | -9.3% | 39% | -5.3% | 91.2% | 91.2% | 94.1% | 146% | 102% |
| NC(=O)c1cc[n+](CC2=C(C(=O)O)N3C(=O)[C@@H](NC(=O)[C@@H](c4ccccc4)S(=O)(=O)[O-])[C@H]3SC2)cc1 | 6.5% | -19.8% | 13.7% | 6.9% | 12.1% | 71.2% | 94.6% | 110% | 99% | 104% |
| Cc1cc(=O)oc2cc(O)c(O)cc12 | -40.2% | -12.6% | -24.9% | -0.7% | 8.1% | 98.5% | 90.4% | 84.2% | 104% | 59.1% |

| SMILES | loss of total cells (Human fetal astrocytes [1]; 1.39 µM) | loss of total cells (Human fetal astrocytes [1]; 2.78 µM) | loss of total cells (Human fetal astrocytes [1]; 5.56 µM) | loss of total cells (Human fetal astrocytes [1]; 11.11 µM) | loss of total cells (Human fetal astrocytes [1]; 22.22 µM) | synaptosome phagocytosis (Human fetal astrocytes [2]; 1.39 µM) | synaptosome phagocytosis (Human fetal astrocytes [2]; 2.78 µM) | synaptosome phagocytosis (Human fetal astrocytes [2]; 5.56 µM) | synaptosome phagocytosis (Human fetal astrocytes [2]; 11.11 µM) | synaptosome phagocytosis (Human fetal astrocytes [2]; 22.22 µM) |
| --- | --- | --- | --- | --- | --- | --- | --- | --- | --- | --- |
| Nc1ccc(S(=O)(=O)Nc2cnc3ccccc3n2)cc1 | -11.6% | 4% | -3.3% | -10.2% | -24.4% | 107% | 85.2% | 80.7% | 90.8% | 96.4% |
| CCc1ccc(CCOc2ccc(CC3SC(=O)NC3=O)cc2)nc1 (stereo not given) | -25.8% | -30.2% | -0.6% | 45.6% | 8.4% | 122% | 132% | 109% | 120% | 126% |
| CN1CCCN=C1COC(=O)C(O)(c1ccccc1)C1CCCCC1 (stereo not given) | -19.9% | -21.6% | 2.1% | -3.9% | 11.3% | 97.3% | 113% | 88.6% | 126% | 103% |
| C=C1c2cccc(O)c2C(O)=C2C(=O)[C@]3(O)C(O)=C(C(N)=O)C(=O)[C@@H](N(C)C)[C@@H]3[C@@H](O)[C@H]12 | -22.4% | -16.2% | 3.3% | -23.4% | 19.3% | 123% | 96.9% | 102% | 82.8% | 104% |
| Cc1ncc(CO)c(CO)c1O | 25.8% | -23% | 1.2% | -6.9% | 10.3% | 121% | 103% | 106% | 81.6% | 88.6% |
| CC(C)NCC(O)c1ccc2ccccc2c1 (stereo not given) | 17% | 11.2% | 18.8% | -11.3% | 9.1% | 114% | 88.5% | 105% | 88.1% | 83.5% |
| CC(=O)N[C@@H](Cc1ccccc1)C(=O)O | -3.3% | -9.7% | -2.2% | -6.1% | 0.7% | 84.8% | 95.6% | 97.5% | 118% | 130% |
| O=C(O)CCCC[C@@H]1SC[C@@H]2NC(=O)N[C@@H]21 | -39.5% | -38.9% | -7.5% | -0.3% | 7.8% | 101% | 96.5% | 103% | 99% | 118% |
| O=C(NC(Cc1cc(=O)[nH]c2ccccc12)C(=O)O)c1ccc(Cl)cc1 (stereo not given) | -3.2% | 11.9% | 27.5% | 19.7% | 1.5% | 113% | 128% | 141% | 82.5% | 107% |
| C=CC1=C(C)C2=CC3=NC(=C(CC(=O)O)C4=NC(=C(C)C4=C(O)O)C=c4[nH]c(c(C)c4CC)=CC1=N2)C(CCC(=O)O)C3C (stereo not given) | -30.6% | 38.9% | 16.8% | 52.8% | 65.7% | 85.3% | 147% | 99.4% | 78% | 56.5% |
| NC(=O)CCCCC1CCSS1 (stereo not given) | 7.6% | 4% | 7.2% | 7.9% | 21.2% | 82.1% | 123% | 126% | 125% | 99% |
| CN(C)CCN(Cc1ccc(Cl)cc1)c1ccccn1 | 9.7% | 9.7% | 15.2% | 13% | 12.1% | 106% | 112% | 112% | 93.5% | 123% |
| O=C(Oc1ccccc1C(=O)O)c1ccccc1O | 5% | -18.6% | 6.9% | -15.6% | 14.7% | 111% | 124% | 101% | 132% | 106% |
| CC(C)n1c(/C=C/C(O)CC(O)CC(=O)O)c(-c2ccc(F)cc2)c2ccccc21 (stereo not given) | -21.8% | -45.2% | 7.5% | 4.3% | 0.9% | 115% | 89.8% | 87.5% | 72.8% | 63.3% |
| c1ccc(-c2ccc(C(c3ccccc3)n3ccnc3)cc2)cc1 (stereo not given) | -35.5% | 36.5% | -6.8% | 25.2% | 27.7% | 95.7% | 146% | 96.8% | 108% | 137% |
| O=C(O)CCCc1ccccc1 | 5.4% | 13.4% | 8.7% | 7.9% | 1.5% | 103% | 119% | 79.9% | 117% | 126% |
| CCC(=O)OCC(=O)[C@@]1(OC(=O)CC)[C@H](C)C[C@H]2[C@H]3[C@H]([C@@H](O)C[C@@]21C)[C@@]1(C)C=CC(=O)C=C1C[C@H]3Cl | -32.3% | -32.5% | -7.5% | 18.7% | -11.5% | 122% | 125% | 113% | 111% | 99.4% |
| COc1cc(NS(C)(=O)=O)ccc1Nc1c2ccccc2nc2ccccc12 | 32.3% | -18.3% | 7.5% | 36.4% | 14.6% | 120% | 105% | 86.4% | 91.5% | 62.4% |
| CCOC(=O)[C@H](CCc1ccccc1)N[C@H]1CCc2ccccc2N(CC(=O)O)C1=O | -15.8% | 6.4% | 2.1% | 4.7% | 61.8% | 97.7% | 95.2% | 100% | 69.6% | 35.7% |
| CC(C(=O)O)c1ccc(-c2ccccc2)c(F)c1 (stereo not given) | -3.9% | -3.1% | -7% | -5.5% | 37.4% | 106% | 81.4% | 98.6% | 128% | 116% |
| C#CCCCCCCCCCCCC(O)CC(O)COC(C)=O (stereo not given) | 9.7% | 17.7% | -0.7% | 6.3% | 13.6% | 72.8% | 70.8% | 70.3% | 71.6% | 48.6% |

Shown tab-delimited: entries from further up.
SMILES	loss of total cells (Human fetal astrocytes [1]; 1.39 µM)	loss of total cells (Human fetal astrocytes [1]; 2.78 µM)	loss of total cells (Human fetal astrocytes [1]; 5.56 µM)	loss of total cells (Human fetal astrocytes [1]; 11.11 µM)	loss of total cells (Human fetal astrocytes [1]; 22.22 µM)	synaptosome phagocytosis (Human fetal astrocytes [2]; 1.39 µM)	synaptosome phagocytosis (Human fetal astrocytes [2]; 2.78 µM)	synaptosome phagocytosis (Human fetal astrocytes [2]; 5.56 µM)	synaptosome phagocytosis (Human fetal astrocytes [2]; 11.11 µM)	synaptosome phagocytosis (Human fetal astrocytes [2]; 22.22 µM)
COc1cc([C@@H]2c3cc4c(cc3[C@@H](O[C@@H]3O[C@@H]5CO[C@@H](C)O[C@H]5[C@H](O)[C@H]3O)[C@H]3COC(=O)[C@H]23)OCO4)cc(OC)c1O	3.3%	-1%	6.3%	10.7%	1.5%	95.2%	99.1%	108%	81.2%	94.3%
COc1ccc([C@@H](C)C(=O)c2ccc(O)cc2O)cc1	12.7%	10.6%	-24.4%	45.2%	-18.1%	109%	98.9%	76.3%	114%	71.4%
